Measured values published in the supplement of paper PMC10849652.
The other results are listed elsewhere or left out.

Chains of the proteins cited; added tags and fusions are not shown. Lines headed by an entry give the natural chain unless they say otherwise; changes in a name come on top.
UniProt Q92913: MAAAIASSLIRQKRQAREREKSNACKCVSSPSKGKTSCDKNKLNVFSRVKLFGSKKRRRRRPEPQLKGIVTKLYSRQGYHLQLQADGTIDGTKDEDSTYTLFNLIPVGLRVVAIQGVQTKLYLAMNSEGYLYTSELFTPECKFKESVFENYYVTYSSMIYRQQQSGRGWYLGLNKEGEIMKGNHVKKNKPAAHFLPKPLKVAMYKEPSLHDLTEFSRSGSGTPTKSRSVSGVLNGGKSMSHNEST
UniProt Q5XUX1: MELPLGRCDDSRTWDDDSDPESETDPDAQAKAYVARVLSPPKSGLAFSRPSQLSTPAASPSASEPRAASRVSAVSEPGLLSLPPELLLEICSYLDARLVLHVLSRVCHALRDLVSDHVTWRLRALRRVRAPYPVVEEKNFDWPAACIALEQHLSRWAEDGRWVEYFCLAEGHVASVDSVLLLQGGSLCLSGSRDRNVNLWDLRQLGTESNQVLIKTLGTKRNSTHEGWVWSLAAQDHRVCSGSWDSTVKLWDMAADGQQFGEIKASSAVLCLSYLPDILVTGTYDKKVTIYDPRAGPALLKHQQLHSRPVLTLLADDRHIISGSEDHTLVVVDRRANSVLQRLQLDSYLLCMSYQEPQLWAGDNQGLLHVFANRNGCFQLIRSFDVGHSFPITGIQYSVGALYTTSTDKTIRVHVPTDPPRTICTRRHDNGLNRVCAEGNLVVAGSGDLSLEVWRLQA
UniProt Q9UKT5: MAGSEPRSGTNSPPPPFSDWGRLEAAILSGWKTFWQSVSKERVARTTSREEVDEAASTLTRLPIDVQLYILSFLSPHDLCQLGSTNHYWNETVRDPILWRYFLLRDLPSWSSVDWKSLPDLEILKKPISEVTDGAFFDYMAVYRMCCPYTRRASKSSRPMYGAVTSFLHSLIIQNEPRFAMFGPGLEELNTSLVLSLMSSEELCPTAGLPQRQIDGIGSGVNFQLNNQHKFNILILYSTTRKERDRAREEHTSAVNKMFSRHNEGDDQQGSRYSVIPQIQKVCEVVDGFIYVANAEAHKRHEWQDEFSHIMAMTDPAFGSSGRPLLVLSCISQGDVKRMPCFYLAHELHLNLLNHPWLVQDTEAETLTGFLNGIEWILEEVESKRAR
UniProt O95363: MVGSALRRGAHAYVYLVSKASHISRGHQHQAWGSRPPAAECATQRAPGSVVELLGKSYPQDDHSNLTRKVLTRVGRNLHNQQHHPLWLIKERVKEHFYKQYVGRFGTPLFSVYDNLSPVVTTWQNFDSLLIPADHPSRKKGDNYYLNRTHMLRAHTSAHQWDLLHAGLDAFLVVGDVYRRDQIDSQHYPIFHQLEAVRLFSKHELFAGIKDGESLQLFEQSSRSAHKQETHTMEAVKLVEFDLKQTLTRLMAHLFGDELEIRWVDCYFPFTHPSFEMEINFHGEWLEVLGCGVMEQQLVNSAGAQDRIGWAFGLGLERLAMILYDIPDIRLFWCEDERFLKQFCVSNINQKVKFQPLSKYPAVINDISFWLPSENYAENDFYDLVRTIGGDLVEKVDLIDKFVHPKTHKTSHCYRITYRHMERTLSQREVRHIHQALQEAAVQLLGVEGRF
UniProt A6NHQ2: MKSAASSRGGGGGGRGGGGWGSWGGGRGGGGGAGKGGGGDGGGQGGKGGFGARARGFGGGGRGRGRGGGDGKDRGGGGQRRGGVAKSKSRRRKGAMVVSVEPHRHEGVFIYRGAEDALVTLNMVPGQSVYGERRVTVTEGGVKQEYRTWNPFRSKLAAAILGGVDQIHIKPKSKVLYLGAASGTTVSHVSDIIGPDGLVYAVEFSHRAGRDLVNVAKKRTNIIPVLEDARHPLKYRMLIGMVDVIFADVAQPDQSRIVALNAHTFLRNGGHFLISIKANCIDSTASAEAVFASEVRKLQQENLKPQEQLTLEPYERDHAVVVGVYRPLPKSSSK
UniProt Q9UKT8: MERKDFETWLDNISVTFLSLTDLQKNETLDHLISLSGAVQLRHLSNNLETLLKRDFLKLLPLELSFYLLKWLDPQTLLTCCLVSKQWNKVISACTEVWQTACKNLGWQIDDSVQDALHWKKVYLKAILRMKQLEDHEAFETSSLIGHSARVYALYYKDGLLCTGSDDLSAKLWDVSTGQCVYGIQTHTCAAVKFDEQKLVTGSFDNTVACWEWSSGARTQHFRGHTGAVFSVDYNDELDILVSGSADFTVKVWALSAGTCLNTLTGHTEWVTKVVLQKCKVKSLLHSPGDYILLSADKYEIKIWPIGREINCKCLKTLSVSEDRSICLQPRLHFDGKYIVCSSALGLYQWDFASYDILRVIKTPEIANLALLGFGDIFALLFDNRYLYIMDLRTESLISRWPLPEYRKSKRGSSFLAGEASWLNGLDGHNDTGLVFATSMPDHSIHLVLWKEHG
UniProt Q9UK97: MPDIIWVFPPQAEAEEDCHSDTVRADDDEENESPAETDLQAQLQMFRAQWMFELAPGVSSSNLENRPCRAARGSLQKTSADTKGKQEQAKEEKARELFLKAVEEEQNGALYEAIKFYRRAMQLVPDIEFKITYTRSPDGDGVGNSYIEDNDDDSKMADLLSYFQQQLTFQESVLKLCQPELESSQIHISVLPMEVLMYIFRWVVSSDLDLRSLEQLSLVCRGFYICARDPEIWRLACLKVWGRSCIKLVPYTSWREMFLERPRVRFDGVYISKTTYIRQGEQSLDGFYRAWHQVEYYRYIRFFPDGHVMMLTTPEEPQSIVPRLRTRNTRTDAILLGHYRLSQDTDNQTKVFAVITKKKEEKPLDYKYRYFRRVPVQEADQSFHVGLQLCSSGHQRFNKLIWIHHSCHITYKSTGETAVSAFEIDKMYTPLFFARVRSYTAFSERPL
UniProt Q5JUQ0: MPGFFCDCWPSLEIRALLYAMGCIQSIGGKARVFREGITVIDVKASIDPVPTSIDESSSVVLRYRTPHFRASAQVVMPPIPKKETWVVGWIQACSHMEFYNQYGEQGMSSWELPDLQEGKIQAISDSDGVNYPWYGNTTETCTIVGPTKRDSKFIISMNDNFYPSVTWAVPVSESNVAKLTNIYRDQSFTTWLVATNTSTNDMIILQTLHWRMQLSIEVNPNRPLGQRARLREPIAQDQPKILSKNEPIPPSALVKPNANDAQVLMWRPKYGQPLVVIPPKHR
UniProt Q13451: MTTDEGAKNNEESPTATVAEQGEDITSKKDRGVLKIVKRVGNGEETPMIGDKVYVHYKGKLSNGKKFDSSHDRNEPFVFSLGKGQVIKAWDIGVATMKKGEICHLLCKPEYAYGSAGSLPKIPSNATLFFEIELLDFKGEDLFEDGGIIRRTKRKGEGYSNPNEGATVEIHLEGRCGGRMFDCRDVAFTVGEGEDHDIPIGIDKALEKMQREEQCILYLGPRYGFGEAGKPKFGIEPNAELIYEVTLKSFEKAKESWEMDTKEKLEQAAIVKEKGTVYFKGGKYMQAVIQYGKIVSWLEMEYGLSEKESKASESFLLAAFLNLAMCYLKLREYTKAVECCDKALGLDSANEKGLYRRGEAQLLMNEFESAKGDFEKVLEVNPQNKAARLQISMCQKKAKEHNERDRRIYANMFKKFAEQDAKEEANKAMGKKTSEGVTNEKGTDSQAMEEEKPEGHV
UniProt P62942, whole entry, looked up: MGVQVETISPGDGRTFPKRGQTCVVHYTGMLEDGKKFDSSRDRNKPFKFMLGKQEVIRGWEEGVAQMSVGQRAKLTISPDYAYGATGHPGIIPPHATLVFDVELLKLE
UniProt Q9BXW9: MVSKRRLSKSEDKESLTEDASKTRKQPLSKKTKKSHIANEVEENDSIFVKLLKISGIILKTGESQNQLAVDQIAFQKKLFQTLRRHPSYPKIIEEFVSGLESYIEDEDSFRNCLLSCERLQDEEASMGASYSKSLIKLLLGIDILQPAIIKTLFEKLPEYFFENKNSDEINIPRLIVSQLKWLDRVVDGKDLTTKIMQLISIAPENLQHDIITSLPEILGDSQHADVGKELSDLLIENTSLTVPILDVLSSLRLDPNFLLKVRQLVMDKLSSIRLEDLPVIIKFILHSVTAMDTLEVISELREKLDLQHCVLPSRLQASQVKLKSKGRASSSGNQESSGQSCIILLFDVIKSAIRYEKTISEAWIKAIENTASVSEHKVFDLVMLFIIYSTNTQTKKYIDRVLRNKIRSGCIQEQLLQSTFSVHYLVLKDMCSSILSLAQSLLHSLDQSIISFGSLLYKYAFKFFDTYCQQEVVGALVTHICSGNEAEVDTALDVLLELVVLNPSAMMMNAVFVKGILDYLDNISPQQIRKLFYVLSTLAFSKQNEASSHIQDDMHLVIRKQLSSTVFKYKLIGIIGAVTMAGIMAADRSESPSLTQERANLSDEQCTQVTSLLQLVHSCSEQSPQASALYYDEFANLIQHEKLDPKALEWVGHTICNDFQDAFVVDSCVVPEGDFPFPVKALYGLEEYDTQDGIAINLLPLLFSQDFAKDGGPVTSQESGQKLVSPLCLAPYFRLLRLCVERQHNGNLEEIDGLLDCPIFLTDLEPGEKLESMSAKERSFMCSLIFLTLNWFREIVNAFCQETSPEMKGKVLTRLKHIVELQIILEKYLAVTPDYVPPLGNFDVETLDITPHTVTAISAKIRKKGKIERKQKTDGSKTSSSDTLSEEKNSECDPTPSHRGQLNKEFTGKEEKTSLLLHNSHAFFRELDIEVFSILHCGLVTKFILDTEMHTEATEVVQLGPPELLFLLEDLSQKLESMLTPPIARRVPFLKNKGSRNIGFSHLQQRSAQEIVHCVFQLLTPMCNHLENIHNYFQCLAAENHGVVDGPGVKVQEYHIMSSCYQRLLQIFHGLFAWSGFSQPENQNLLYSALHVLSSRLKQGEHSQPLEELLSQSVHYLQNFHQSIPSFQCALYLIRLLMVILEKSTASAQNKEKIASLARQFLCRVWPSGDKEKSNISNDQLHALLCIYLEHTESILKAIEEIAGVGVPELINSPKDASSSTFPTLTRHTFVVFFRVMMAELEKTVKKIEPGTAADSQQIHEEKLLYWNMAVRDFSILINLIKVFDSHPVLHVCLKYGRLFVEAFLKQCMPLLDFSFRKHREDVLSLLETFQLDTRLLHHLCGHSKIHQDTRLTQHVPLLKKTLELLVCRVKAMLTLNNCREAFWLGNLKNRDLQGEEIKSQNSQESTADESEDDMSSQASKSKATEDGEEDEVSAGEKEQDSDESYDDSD
UniProt B1AJZ9: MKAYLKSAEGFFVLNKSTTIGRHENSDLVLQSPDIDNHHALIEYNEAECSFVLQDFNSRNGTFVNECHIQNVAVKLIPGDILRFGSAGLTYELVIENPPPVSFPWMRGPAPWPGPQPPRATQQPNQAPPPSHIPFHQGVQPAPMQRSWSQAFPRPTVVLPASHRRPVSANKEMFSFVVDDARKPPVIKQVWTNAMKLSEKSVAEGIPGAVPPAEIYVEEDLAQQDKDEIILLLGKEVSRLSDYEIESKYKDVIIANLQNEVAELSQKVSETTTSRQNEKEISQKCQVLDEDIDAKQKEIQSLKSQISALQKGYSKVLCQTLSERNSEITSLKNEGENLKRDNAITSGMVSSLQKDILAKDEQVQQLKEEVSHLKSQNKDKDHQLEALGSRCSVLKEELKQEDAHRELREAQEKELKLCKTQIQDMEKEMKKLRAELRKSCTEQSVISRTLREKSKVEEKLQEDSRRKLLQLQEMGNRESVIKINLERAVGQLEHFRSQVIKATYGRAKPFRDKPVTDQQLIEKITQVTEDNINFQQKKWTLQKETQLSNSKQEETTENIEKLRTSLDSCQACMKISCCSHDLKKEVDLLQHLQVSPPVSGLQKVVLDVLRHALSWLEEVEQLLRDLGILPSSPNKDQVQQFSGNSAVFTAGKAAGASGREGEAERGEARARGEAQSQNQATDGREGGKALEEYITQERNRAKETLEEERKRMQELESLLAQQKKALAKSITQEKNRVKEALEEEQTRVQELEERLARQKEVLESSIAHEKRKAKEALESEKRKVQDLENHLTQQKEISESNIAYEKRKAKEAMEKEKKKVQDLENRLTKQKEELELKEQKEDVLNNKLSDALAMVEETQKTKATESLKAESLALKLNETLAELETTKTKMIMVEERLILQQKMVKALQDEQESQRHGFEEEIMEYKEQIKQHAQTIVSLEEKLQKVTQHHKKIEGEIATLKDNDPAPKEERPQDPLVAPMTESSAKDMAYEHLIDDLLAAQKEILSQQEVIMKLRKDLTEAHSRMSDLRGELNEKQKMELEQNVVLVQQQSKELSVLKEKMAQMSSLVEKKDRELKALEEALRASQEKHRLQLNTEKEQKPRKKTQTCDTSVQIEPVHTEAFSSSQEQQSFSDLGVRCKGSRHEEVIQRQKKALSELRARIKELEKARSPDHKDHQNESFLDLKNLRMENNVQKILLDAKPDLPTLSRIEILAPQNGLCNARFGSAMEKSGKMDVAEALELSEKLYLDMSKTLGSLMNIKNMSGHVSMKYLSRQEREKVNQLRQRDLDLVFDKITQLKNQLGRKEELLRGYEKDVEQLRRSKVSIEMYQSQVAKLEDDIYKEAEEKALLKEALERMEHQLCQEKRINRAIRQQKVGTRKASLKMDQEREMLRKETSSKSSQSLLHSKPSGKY

Tests used:
Test in all cases: log2 fold change, soluble protein after heating vs DMSO (PISA); higher = thermal stabilisation; K562 cells, 10 uM, 30 min; active = over 0.2 and 3.5 SD of the protein, either way, in both replicates (recomputed)
[1] = compound: C1=CC=C(C=C1)[C@H](COC2=CC3=C(C=C2)NC(=O)N3)NC(=O)C4=CC=CN(C4=O)CC5=CC(=C(C=C5)F)F
Procedure, shortened: (§1)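 Values are thermal stability changes relative to control samples and are taken from duplicates. They are stated as log2 fold changes. Before quantification by TMTpro 16plex LC-MS/MS with equalised channel sums, K562 cells at 2×10^6 cells/mL were treated with 10 μM compound for 30 min, heated in aliquots for 3 min across 48°C-58°C, pooled, extracted in PBS with 0.5% NP-40 at 4°C, and centrifuged at 21,000xg for 90 min to give the soluble supernatant.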

[2] = compound: CC1=C(SC2=C1C(=N[C@H](C3=NN=C(N32)C)CC(=O)N)C4=CC=C(C=C4)Cl)C
Procedure, shortened: as §1

[3] = compound: CC1=C2C(=CC=C1)N=C(N(C2=O)C3=CC=CC=C3C)CN4C=NC5=C(N=CN=C54)N
Procedure, shortened: as §1

[4] = compound: Cc1sc2c(c1C)C(c1ccc(Cl)cc1)=N[C@@H](CC(=O)OC(C)(C)C)c1nnc(C)n1-2
Procedure, shortened: as §1

[5] = compound: c1ccc([C@@H]2C[C@H]2NC2CCNCC2)cc1
Procedure, shortened: as §1

Measured: log2 fold change

FBXO22 (UniProt Q8NEZ5)
inactive: [1] 0.039 | [2] 0.014 | [3] 0.024 | [4] -0.025 | [5] -0.033

FHL3 (UniProt Q13643)
inactive: [1] 0.039 | [2] 0.018 | [3] -0.014 | [4] -0.01 | [5] 0.019

FKBP3 (UniProt Q00688)
inactive: [1] 0.014 | [2] 0.003 | [3] 0.01 | [4] 0.011 | [5] -0.016

FITM2 (UniProt Q8N6M3)
inactive: [1] 0.12

FDFT1 (UniProt P37268)
inactive: [1] -0.064 | [3] 0.089 | [4] 0.109 | [5] -0.021
active: [2] 0.319

Taken from above (3 entries):
FBXO22 (UniProt Q8NEZ5)
inactive: [1] 0.039 | [2] 0.014 | [3] 0.024 | [4] -0.025 | [5] -0.033

FHL3 (UniProt Q13643)
inactive: [1] 0.039 | [2] 0.018 | [3] -0.014 | [4] -0.01 | [5] 0.019

FKBP3 (UniProt Q00688)
inactive: [1] 0.014 | [2] 0.003 | [3] 0.01 | [4] 0.011 | [5] -0.016

Following part

FAXDC2 (UniProt Q96IV6)
inactive: [1] -0.049

FCGR2C (UniProt P31995)
inactive: [1] 0.024 | [2] 0.03 | [3] 0.001 | [4] -0.028 | [5] 0.084

FH (UniProt P07954)
inactive: [1] -0.008 | [2] 0.084 | [3] 0.021 | [4] -0.016 | [5] -0.05

FAM76B (UniProt Q5HYJ3)
inactive: [1] 0.058 | [2] 0.071 | [3] 0.241 | [4] 0.004 | [5] -0.039

FMNL1 isoform 3 (UniProt O95466)
inactive: [1] -0.267

FAM50A (UniProt Q14320)
inactive: [1] -0.026 | [2] 0.032 | [3] 0.033 | [4] -0.025 | [5] 0.007

FAM3C (UniProt Q92520)
inactive: [1] 0.002 | [2] 0.033 | [3] 0.002 | [4] 0.055 | [5] -0.019

FGF13 isoform 3 (UniProt Q92913)
inactive: [1] 0.005 | [2] 0.051 | [3] 0.035 | [4] 0.007 | [5] -0.085

FASN (UniProt P49327)
inactive: [1] -0.051 | [2] 0.063 | [3] 0.026 | [4] -0.021 | [5] -0.037

FLNC (UniProt Q14315)
inactive: [1] -0.014 | [2] 0.028 | [3] 0.035 | [4] 0 | [5] -0.003

FN3K (UniProt Q9H479)
inactive: [1] 0.016 | [2] 0.033 | [3] 0.001 | [4] -0.003 | [5] 0.003

FBXW9 (UniProt Q5XUX1)
inactive: [1] -0.07 | [2] 0.032 | [3] -0.015 | [4] 0.07 | [5] -0.024

FBXO4 (UniProt Q9UKT5)
inactive: [1] -0.013 | [2] 0.04 | [3] 0.022 | [4] -0.031 | [5] -0.09

FCHO2 (UniProt Q0JRZ9)
inactive: [1] -0.025 | [2] 0.053 | [3] 0.061 | [4] -0.003 | [5] 0.043

FARS2 (UniProt O95363)
inactive: [1] -0.021 | [2] 0.022 | [3] 0.006 | [4] 0.069 | [5] -0.018

FKBP4 (UniProt Q02790)
inactive: [1] -0.032 | [2] 0.042 | [3] 0.037 | [4] 0.004 | [5] -0.029

FBLL1 (UniProt A6NHQ2)
inactive: [1] 0.151 | [2] -0.105 | [3] -0.272 | [4] 0.084 | [5] 0.111

FAM3A (UniProt P98173)
inactive: [1] -0.01 | [2] -0.001 | [3] 0.038 | [4] -0.051 | [5] -0.014

FLNB isoform 8 (UniProt O75369)
inactive: [1] -0.015 | [2] 0.06 | [3] 0.045 | [4] 0.005 | [5] 0

FBXW2 (UniProt Q9UKT8)
inactive: [1] 0.093 | [2] 0.052 | [3] -0.025 | [4] 0.044 | [5] 0.237

FERMT3 (UniProt Q86UX7)
inactive: [1] -0.026 | [2] 0.066 | [3] 0.053 | [4] -0.018 | [5] -0.019

FAM234B (UniProt A2RU67)
inactive: [1] 0.125 | [2] 0.084 | [3] -0.083 | [4] -0.172 | [5] 0.168

FBXO33 (UniProt Q7Z6M2)
inactive: [1] -0.12

FKBPL (UniProt Q9UIM3)
inactive: [1] -0.025 | [2] 0.031 | [3] 0.054 | [4] -0.016 | [5] 0.028

FKBP14 (UniProt Q9NWM8)
inactive: [1] 0.01 | [2] 0.104 | [3] -0.036 | [4] 0.026 | [5] -0.032

FAM49B (UniProt Q9NUQ9)
inactive: [1] -0.012 | [2] 0.036 | [3] 0.075 | [4] -0.026 | [5] -0.001

FANCB (UniProt Q8NB91)
inactive: [1] -0.002 | [2] 0.057 | [3] 0.019 | [4] -0.056 | [5] 0.013

FANCI (UniProt Q9NVI1)
inactive: [1] -0.071 | [2] 0.028 | [3] 0.109 | [4] -0.008 | [5] -0.037

FAR1 (UniProt Q8WVX9)
inactive: [1] -0.002 | [2] 0.068 | [3] 0.104 | [4] -0.035 | [5] -0.011

FECH isoform 2 (UniProt P22830)
inactive: [1] 0.008 | [2] 0.03 | [3] 0.023 | [4] -0.07 | [5] -0.08

FAM89A (UniProt Q96GI7)
inactive: [1] 0.241

FBXL20 (UniProt Q96IG2)
inactive: [1] -0.068 | [2] 0.005 | [3] 0.03 | [4] -0.022 | [5] 0.005

FAM8A1 (UniProt Q9UBU6)
inactive: [1] -0.036 | [2] 0.067 | [3] 0.001 | [4] 0.053 | [5] 0.032

FLVCR1 (UniProt Q9Y5Y0)
inactive: [1] -0.035 | [2] 0 | [3] 0.032 | [4] -0.081 | [5] 0.049

FBXO9 (UniProt Q9UK97)
inactive: [1] -0.011 | [2] 0.23 | [3] 0.016 | [4] 0.161 | [5] 0.07

FAM78A (UniProt Q5JUQ0)
inactive: [1] 0.019 | [2] 0.068 | [3] 0.061 | [4] 0.018 | [5] -0.047

FDX2 (UniProt Q6P4F2)
inactive: [1] 0.047 | [2] 0.064 | [3] 0.025 | [4] -0.028 | [5] 0.024

FNBP4 isoform 2 (UniProt Q8N3X1)
inactive: [1] 0.049 | [2] -0.014 | [3] 0.045 | [4] 0.014 | [5] 0.027

FBXL18 isoform 4 (UniProt Q96ME1)
inactive: [1] -0.027 | [2] 0.007 | [3] 0.012 | [4] -0.042 | [5] -0.007

FEM1B (UniProt Q9UK73)
inactive: [1] -0.026 | [2] -0.02 | [3] 0.102 | [4] 0.008 | [5] 0.025

FKBP5 (UniProt Q13451)
inactive: [1] -0.141 | [2] 0.006 | [3] 0.101 | [4] -0.028 | [5] -0.097

FBL (UniProt P22087)
inactive: [1] 0.095 | [2] -0.267 | [3] -0.126 | [4] 0.18 | [5] 0.074

FKBP1A (UniProt P62942)
inactive: [1] 0.116 | [2] 0.124 | [3] 0.207 | [4] -0.101 | [5] -0.158

FAM98A (UniProt Q8NCA5)
inactive: [1] 0.028 | [2] -0.12 | [3] -0.109 | [4] 0.199 | [5] 0

FLNA (UniProt P21333)
inactive: [1] -0.11 | [2] 0.016 | [3] 0.049 | [4] 0.019 | [5] -0.008

FAM83D (UniProt Q9H4H8)
inactive: [1] -0.068 | [2] 0.027 | [3] 0 | [4] 0.045 | [5] 0.06

FANCD2 isoform 1 (UniProt Q9BXW9)
inactive: [1] -0.018 | [2] 0.068 | [3] 0.159 | [4] -0.041 | [5] -0.009

FASTKD2 (UniProt Q9NYY8)
inactive: [1] -0.026 | [2] 0.054 | [3] 0.071 | [4] 0.014 | [5] -0.002

FHAD1 isoform 3 (UniProt B1AJZ9)
inactive: [1] -0.258 | [2] -0.018 | [3] -0.153 | [4] -0.065 | [5] -0.092

FGB (UniProt P02675)
inactive: [1] -0.15 | [2] 0 | [3] 0.149 | [4] 0.029 | [5] -0.195

FLYWCH2 (UniProt Q96CP2)
inactive: [1] 0.036 | [2] -0.007 | [3] -0.044 | [4] -0.014 | [5] -0.051
